The values that follow come from patent publication US20110172147A1 (priority 2009, published 2011).

One data set in a line: general procedure: Fmoc solid-phase peptide synthesis; Fmoc-Linker-BHA resin (Rink linker); Rink Amide Resin; HBTU and DIC preferred, with HOBt. The note with it: whole synthesis, scale 0.22 mmol, 1:2 TFA.
The substance “CH3—(OCH2CH2)2—O—CH2—CO-Ile-Lys(Eicosanoyl-gammaGlu-gammaGlu)-Pqa-Arg-His-Tyr-Leu-Asn-Trp-Val-Thr-Arg-Gln-(NMe)-Arg-Tyr-NH2 1:2 TFA” displayed an isolated mass of 31 mg and an isolated yield of 5%.
Regarding “CH3—(OCH2CH2)7—O—(CH2)2—CO-Ile-Lys(Eicosanoyl-gammaGlu-gammaGlu)-Pqa-Arg-His-Tyr-Leu-Asn-Trp-Val-Thr-Arg-Gln-(NMe)-Arg-Tyr-NH2 1:2 TFA”, the isolated mass is 67 mg and the isolated yield amounted to 11%.
In turn, “CH3—(OCH2CH2)11—O—(CH2)2—CO-Ile-Lys(Eicosanoyl-gammaGlu-gammaGlu)-Pqa-Arg-His-Tyr-Leu-Asn-Trp-Val-Thr-Arg-Gln-(NMe)-Arg-Tyr-NH2 1:2 TFA” showed an isolated mass of 66 mg and an isolated yield of 11%.
The substance “CH3—(OCH2CH2)23—O—(CH2)2—CO-Ile-Lys(Eicosanoyl-Cys{SO3}-Cys {SO3})-Pqa-Cit-His-Tyr-Leu-Asn-Trp-Val-Thr-Arg-Gln-(NMe)-Arg-Tyr-NH2 1:2 TFA” displayed an isolated mass of 51 mg and an isolated yield of 6%.
Substance “CH3—(OCH2CH2)23—O—(CH2)2—CO-Ile-Lys(Eicosanoyl-gammaGlu-gammaGlu)-Pqa-Arg-His-Tyr-Leu-Asn-Trp-Val-Thr-Arg-Gln-(NMe)-Arg-Tyr-NH2 1:2 TFA” yielded an isolated mass of 34 mg and an isolated yield of 4.4%.
Consider “CH3—(OCH2CH2)23—O—(CH2)2—CO-Ile-Lys(Palmitoyl-5AOPS)-Pqa-Cit-His-Tyr-Leu-Asn-Trp-Val-Thr-Arg-Gln-(NMe)-Arg-Tyr-NH2 1:2 TFA”, for which the isolated mass worked out at 76 mg and the isolated yield was determined as 10%.
Substance “Eicosanoyl-6Ahx-Ile-Lys[CH3—(OCH2CH2)23—O—(CH2)2—CO]-Pqa-Cit-His-Tyr-Leu-Asn-Trp-Val-Thr-Arg-Gln-(NMe)-Arg-Tyr-NH2 1:2 TFA” registered an isolated mass of 64 mg and an isolated yield of 9%.
Take “Eicosanoyl-Glu-Glu-Ile-Lys[CH3—(OCH2CH2)7—O—(CH2)2—CO]-Pqa-Cit-His-Tyr-Leu-Asn-Trp-Val-Thr-Arg-Gln-(NMe)-Arg-Tyr-NH2 1:2 TFA”: the isolated mass was 53 mg and the isolated yield is on record as 8%.
Turning to “Eicosanoyl-Glu-Glu-Ile-Lys[CH3—(OCH2CH2)11—O—(CH2)2—CO]-Pqa-Cit-His-Tyr-Leu-Asn-Trp-Val-Thr-Arg-Gln-(NMe)-Arg-Tyr-NH2 1:2 TFA”, the isolated mass came to 32 mg and the isolated yield came out at 5%.

The data set is the same for the next values; noted with them: whole synthesis, scale 0.22 mmol, 1:3 TFA.
Consider “15-Carboxy-pentadecanoyl-Glu-Glu-Ile-Lys[CH3—(OCH2CH2)15—O—(CH2)2—CO]-Pqa-Arg-His-Tyr-Leu-Asn-Trp-Val-Thr-Arg-Gln-(NMe)-Arg-Tyr-NH2 1:3 TFA”, for which the isolated mass was 43 mg and the isolated yield was found to be 6%.
Substance “Ac-Ile-Lys[CH3—(OCH2CH2)23—O—(CH2)2—CO]-Pqa-Arg-His-Tyr-Leu-Asn-Trp-Val-Thr-Arg-Gln-(NMe)-Arg-Tyr-NH2 1:3 TFA” registered an isolated mass of 66 mg and an isolated yield of 10%.
For “Ac-Ile-Lys[Palmitoyl-6Ahx-NH—CH2CH2—(OCH2CH2)23—O—(CH2)2—CO]-Pqa-Arg-His-Tyr-Leu-Asn-Trp-Val-Thr-Arg-Gln-(NMe)-Arg-Tyr-NH2 1:3 TFA”, the isolated mass is listed as 58 mg and the isolated yield was found to be 8%.
Regarding “CH3—(OCH2CH2)5—O—CH2—CO-Ile-Lys(Palmitoyl-5AOPS)-Pqa-Arg-His-Tyr-Leu-Asn-Trp-Val-Thr-Arg-Gln-(NMe)-Arg-Tyr-NH2 1:3 TFA”, the isolated mass is reported as 73 mg and the isolated yield is reported as 13%.
Turning to “CH3—(OCH2CH2)5—O—CH2—CO-Ile-Lys(Palmitoyl-6Ahx)-Pqa-Arg-His-Tyr-Leu-Asn-Trp-Val-Thr-Arg-Gln-(NMe)-Arg-Tyr-NH2 1:3 TFA”, the isolated mass was 70 mg and the isolated yield amounted to 12%.
In the case of “CH3—(OCH2CH2)7—O—(CH2)2—CO-6Ahx-Ile-Lys-Pqa-Arg-His-Tyr-Leu-Asn-Trp-Val-Thr-Arg-Gln-(NMe)-Arg-Tyr-NH2 1:3 TFA”, the isolated mass was 85 mg and the isolated yield is 16%.
Take “CH3—(OCH2CH2)7—O—(CH2)2—CO-Ile-Lys(Palmitoyl-6Ahx)-Pqa-Arg-His-Tyr-Leu-Asn-Trp-Val-Thr-Arg-Gln-(NMe)-Arg-Tyr-NH2 1:3 TFA”: the isolated mass came to 143 mg and the isolated yield was determined as 24%.
With “CH3—(OCH2CH2)11—O—(CH2)2—CO-6Ahx-Ile-Lys-Pqa-Arg-His-Tyr-Leu-Asn-Trp-Val-Thr-Arg-Gln-(NMe)-Arg-Tyr-NH2 1:3 TFA”, the isolated mass came out at 90 mg and the isolated yield is 16%.
The like results for “CH3—(OCH2CH2)11—O—(CH2)2—CO-Ile-Lys(Palmitoyl-5AOPS)-Pqa-Arg-His-Tyr-Leu-Asn-Trp-Val-Thr-Arg-Gln-(NMe)-Arg-Tyr-NH2 1:3 TFA” were, in that order, 83 mg and 13%.
As to “CH3—(OCH2CH2)11—O—(CH2)2—CO-Ile-Lys(Palmitoyl-6Ahx)-Pqa-Arg-His-Tyr-Leu-Asn-Trp-Val-Thr-Arg-Gln-(NMe)-Arg-Tyr-NH2 1:3 TFA”, the isolated mass worked out at 54 mg and the isolated yield was 9%.
Substance “CH3—(OCH2CH2)15—O—(CH2)2—CO-6Ahx-Ile-Lys-Pqa-Arg-His-Tyr-Leu-Asn-Trp-Val-Thr-Arg-Gln-(NMe)-Arg-Tyr-NH2 1:3 TFA” yielded an isolated mass of 92 mg and an isolated yield of 15%.
“CH3—(OCH2CH2)15—O—(CH2)2—CO-Ile-Lys(Palmitoyl-5AOPS)-Pqa-Arg-His-Tyr-Leu-Asn-Trp-Val-Thr-Arg-Gln-(NMe)-Arg-Tyr-NH2 1:3 TFA” had an isolated mass of 43.5 mg and an isolated yield of 6%.
In the case of “CH3—(OCH2CH2)15—O—(CH2)2—CO-Ile-Lys(Palmitoyl-6Ahx)-Pqa-Arg-His-Tyr-Leu-Asn-Trp-Val-Thr-Arg-Gln-(NMe)-Arg-Tyr-NH2 1:3 TFA”, the isolated mass is on record as 67 mg and the isolated yield was determined as 10%.
As for “CH3—(OCH2CH2)23—O—(CH2)2—CO-6Ahx-Ile-Lys-Pqa-Arg-His-Tyr-Leu-Asn-Trp-Val-Thr-Arg-Gln-(NMe)-Arg-Tyr-NH2 1:3 TFA”, the isolated mass amounted to 89 mg and the isolated yield is 13%.
On to “CH3—(OCH2CH2)23—O—(CH2)2—CO-Ile-Lys(Eicosanoyl-Cys{SO3}-Cys{SO3})-Pqa-Arg-His-Tyr-Leu-Asn-Trp-Val-Thr-Arg-Gln-(NMe)-Arg-Tyr-NH2 1:3 TFA”, for which the isolated mass is given as 28.4 mg and the isolated yield was 4%.
As for “CH3—(OCH2CH2)23—O—(CH2)2—CO-Ile-Lys(Palmitoyl-5AOPS)-Pqa-Arg-His-Tyr-Leu-Asn-Trp-Val-Thr-Arg-Gln-(NMe)-Arg-Tyr-NH2 1:3 TFA”, the isolated mass is listed as 63 mg and the isolated yield came out at 8%.
The corresponding values for “CH3—(OCH2CH2)23—O—(CH2)2—CO-Ile-Lys(Palmitoyl-6Ahx)-Pqa-Arg-His-Tyr-Leu-Asn-Trp-Val-Thr-Arg-Gln-(NMe)-Arg-Tyr-NH2 1:3 TFA” are 40 mg and 6%.
As for “CH3—(OCH2CH2)23—O—(CH2)2—CO-Ile-Lys(Palmitoyl-Cys{SO3}-Cys{SO3})-Pqa-Arg-His-Tyr-Leu-Asn-Trp-Val-Thr-Arg-Gln-(NMe)-Arg-Tyr-NH2 1:3 TFA”, the isolated mass was 44 mg and the isolated yield amounted to 6%.
The corresponding values for “Eicosanoyl-6Ahx-Ile-Lys[CH3—(OCH2CH2)23—O—(CH2)2—CO]-Pqa-Arg-His-Tyr-Leu-Asn-Trp-Val-Thr-Arg-Gln-(NMe)-Arg-Tyr-NH2 1:3 TFA” are 86 mg and 12%.
As to “Eicosanoyl-Cys(SO3)-Cys(SO3)-Glu-Ile-Lys[CH3—(OCH2CH2)23—O—(CH2)2—CO]-Pqa-Cit-His-Tyr-Leu-Asn-Trp-Val-Thr-Arg-Gln-(NMe)-Arg-Tyr-NH2 1:3 TFA”, the isolated mass turned out to be 37 mg and the isolated yield is 4%.
The like results for “Eicosanoyl-Glu-Glu-(D)alloIle-Lys[CH3—(OCH2CH2)23—O—(CH2)2—CO]-Pqa-Arg-His-Tyr-Leu-Asn-Trp-Val-Thr-Arg-Gln-(NMe)-Arg-Tyr-NH2 1:3 TFA” were, in that order, 90 mg and 12%.
In turn, “Eicosanoyl-Glu-Glu-Ile-Lys[CH3—(OCH2CH2)11—O—(CH2)2—CO]-Pqa-Arg-His-Tyr-Leu-Asn-Trp-Val-Thr-Arg-Gln-(NMe)-Arg-Tyr-NH2 1:3 TFA” registered an isolated mass of 18 mg and an isolated yield of 3%.
In the case of “Eicosanoyl-Glu-Glu-Ile-Lys[CH3—(OCH2CH2)15—O—(CH2)2—CO]-Pqa-Arg-His-Tyr-Leu-Asn-Trp-Val-Thr-Arg-Gln-(NMe)-Arg-Tyr-NH2 1:3 TFA”, the isolated mass is on record as 17 mg and the isolated yield is 2%.

Staying with this data set, now noted: whole synthesis, scale 0.22 mmol, TFA.
“CH3—(OCH2CH2)15—O—(CH2)2—CO-Ile-Lys(Eicosanoyl-gammaGlu-gammaGlu)-Pqa-Arg-His-Tyr-Leu-Asn-Trp-Val-Thr-Arg-Gln-(NMe)-Arg-Tyr-NH2” returned an isolated mass of 67 mg and an isolated yield of 10%.

The data set is the same for the next values; noted with them: whole synthesis, scale 0.25 mmol, 1:3 TFA.
Substance “Eicosanoyl-Glu-Glu-Ile-Lys[CH3—(OCH2CH2)11—O—(CH2)2—CO]-Pqa-Arg-His-Tyr-His-Asn-Trp-Val-Thr-Arg-Gln-Arg-Tyr-NH2 1:3 TFA” came in with an isolated mass of 283 mg and an isolated yield of 43%.
“Eicosanoyl-Glu-Glu-Ile-Lys[CH3—(OCH2CH2)15—O—(CH2)2—CO]-Pqa-Arg-His-Tyr-His-Asn-Trp-Val-Thr-Arg-Gln-Arg-Tyr-NH2 1:3 TFA” came in with an isolated mass of 340 mg and an isolated yield of 49%.

Staying with this data set, now noted: whole synthesis, scale 0.25 mmol, TFA.
“Ac-Ile-Lys-Pqa-Arg-His-Tyr-Leu-Asn-Trp-Val-Thr-Arg-Gln-(NMe)Arg-Tyr-NH2” came in with an isolated mass of 68 mg and an isolated yield of 15%.
